Data as given in doi:10.1101/2024.07.12.603229.
Results are given in words; binding and its absence hold for the method and conditions named. Binding seen in cells or lysates may run through a third protein. Some results given as binding are weak or reduced against the parent protein; the word gives no strength. Where a sequence is shown, tags or fusion partners need not be part of it.

Sequences of proteins named here, by UniProt entry; tags and fusion partners are left off. Residues count along the entry.
UniProt O22476, residues 24-1196: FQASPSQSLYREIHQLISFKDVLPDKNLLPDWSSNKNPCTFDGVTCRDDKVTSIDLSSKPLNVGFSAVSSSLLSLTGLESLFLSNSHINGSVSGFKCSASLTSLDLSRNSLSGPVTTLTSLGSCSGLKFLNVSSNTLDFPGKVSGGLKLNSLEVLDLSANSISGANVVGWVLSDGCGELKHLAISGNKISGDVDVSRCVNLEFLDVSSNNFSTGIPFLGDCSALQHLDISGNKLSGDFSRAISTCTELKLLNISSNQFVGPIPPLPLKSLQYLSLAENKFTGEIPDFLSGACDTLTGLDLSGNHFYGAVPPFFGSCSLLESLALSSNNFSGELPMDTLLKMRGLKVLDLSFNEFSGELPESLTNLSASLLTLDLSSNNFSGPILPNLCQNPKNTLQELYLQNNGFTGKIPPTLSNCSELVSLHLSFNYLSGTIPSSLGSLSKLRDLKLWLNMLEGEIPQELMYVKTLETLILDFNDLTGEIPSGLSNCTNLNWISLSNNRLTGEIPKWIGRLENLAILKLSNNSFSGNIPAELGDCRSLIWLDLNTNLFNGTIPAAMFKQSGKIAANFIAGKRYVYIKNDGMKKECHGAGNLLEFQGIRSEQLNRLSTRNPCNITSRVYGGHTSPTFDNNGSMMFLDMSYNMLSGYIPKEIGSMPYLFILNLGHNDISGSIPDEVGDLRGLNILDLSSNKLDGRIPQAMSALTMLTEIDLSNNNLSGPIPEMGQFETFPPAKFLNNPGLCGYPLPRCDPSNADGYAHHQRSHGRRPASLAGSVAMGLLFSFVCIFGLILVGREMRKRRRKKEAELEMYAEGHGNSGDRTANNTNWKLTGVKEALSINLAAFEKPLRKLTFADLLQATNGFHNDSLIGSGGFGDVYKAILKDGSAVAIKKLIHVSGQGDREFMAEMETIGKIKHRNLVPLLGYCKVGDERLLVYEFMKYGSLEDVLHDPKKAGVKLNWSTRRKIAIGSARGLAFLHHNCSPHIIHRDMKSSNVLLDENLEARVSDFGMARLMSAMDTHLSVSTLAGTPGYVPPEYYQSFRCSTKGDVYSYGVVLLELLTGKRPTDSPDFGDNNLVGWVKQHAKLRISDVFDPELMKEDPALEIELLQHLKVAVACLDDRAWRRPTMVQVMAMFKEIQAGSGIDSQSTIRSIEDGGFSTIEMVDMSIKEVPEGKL

Molecular target: BRI1-mCitN (35S::BRI1-mCitN), BiFC fusion (Arabidopsis thaliana) (UniProt O22476)
Assay: split reporter

## BRI1-mCitN (35S::BRI1-mCitN), BiFC fusion (from UniProt O22476 24-1196) (receptor)
  binding: binds

B1: LecRK-I.9-mCitC (35S::LecRK-I.9-mCitC), BiFC fusion (receptor, UniProt Q9LSR8 22-766)
chain: QQETSFVYESFLDRQNLYLDKSAIVLPSGLLQLTNASEHQMGHAFHKKPIEFSSSGPLSFSTHFVCALVPKPGFEGGHGIVFVLSPSMDFTHAESTRYLGIFNASTNGSSSYHVLAVELDTIWNPDFKDIDHNHVGIDVNSPISVAIASASYYSDMKGSNESINLLSGNPIQVWVDYEGTLLNVSVAPLEVQKPTRPLLSHPINLTELFPNRSSLFAGFSAATGTAISDQYILWWSFSIDRGSLQRLDISKLPEVPHPRAPHKKVSTLIILLPVCLAILVLAVLAGLYFRRRRKYSEVSETWEKEFDAHRFSYRSLFKATKGFSKDEFLGKGGFGEVYRGNLPQGREIAVKRVSHNGDEGVKQFVAEVVSMRCLKHRNLVPLFGYCRRKRELLLVSEYMPNGSLDEHLFDDQKPVLSWSQRLVVVKGIASALWYLHTGADQVVLHRDVKASNIMLDAEFHGRLGDFGMARFHEHGGNAATTAAVGTVGYMAPELITMGASTGTDVYAFGVFMLEVTCGRRPVEPQLQVEKRHMIKWVCECWKKDSLLDATDPRLGGKFVAEEVEMVMKLGLLCSNIVPESRPTMEQVVLYLNKNLPLPDFSPYTLGIGTFAPVLVDASSLVVSSASWSLSGPSMSSSSPNHSPYAWQSTDQPWGQTIDTKNSLHIVAEPEKPSPAVKMVTLPAEDPQSNHSSISSQRVQPVKREKRRLHQILVAFPWINKQYFKLGLPKHIVHVSLFFFLQLARL
  binding: no binding
